Test results: the supplement of paper PMC10849652
The other results are listed elsewhere or left out.

The chains behind the UniProt entries cited, without tags or fusion partners. Where a name states a change or a piece, a line headed by the entry shows the natural chain unless it says otherwise.
UniProt Q2VIQ3: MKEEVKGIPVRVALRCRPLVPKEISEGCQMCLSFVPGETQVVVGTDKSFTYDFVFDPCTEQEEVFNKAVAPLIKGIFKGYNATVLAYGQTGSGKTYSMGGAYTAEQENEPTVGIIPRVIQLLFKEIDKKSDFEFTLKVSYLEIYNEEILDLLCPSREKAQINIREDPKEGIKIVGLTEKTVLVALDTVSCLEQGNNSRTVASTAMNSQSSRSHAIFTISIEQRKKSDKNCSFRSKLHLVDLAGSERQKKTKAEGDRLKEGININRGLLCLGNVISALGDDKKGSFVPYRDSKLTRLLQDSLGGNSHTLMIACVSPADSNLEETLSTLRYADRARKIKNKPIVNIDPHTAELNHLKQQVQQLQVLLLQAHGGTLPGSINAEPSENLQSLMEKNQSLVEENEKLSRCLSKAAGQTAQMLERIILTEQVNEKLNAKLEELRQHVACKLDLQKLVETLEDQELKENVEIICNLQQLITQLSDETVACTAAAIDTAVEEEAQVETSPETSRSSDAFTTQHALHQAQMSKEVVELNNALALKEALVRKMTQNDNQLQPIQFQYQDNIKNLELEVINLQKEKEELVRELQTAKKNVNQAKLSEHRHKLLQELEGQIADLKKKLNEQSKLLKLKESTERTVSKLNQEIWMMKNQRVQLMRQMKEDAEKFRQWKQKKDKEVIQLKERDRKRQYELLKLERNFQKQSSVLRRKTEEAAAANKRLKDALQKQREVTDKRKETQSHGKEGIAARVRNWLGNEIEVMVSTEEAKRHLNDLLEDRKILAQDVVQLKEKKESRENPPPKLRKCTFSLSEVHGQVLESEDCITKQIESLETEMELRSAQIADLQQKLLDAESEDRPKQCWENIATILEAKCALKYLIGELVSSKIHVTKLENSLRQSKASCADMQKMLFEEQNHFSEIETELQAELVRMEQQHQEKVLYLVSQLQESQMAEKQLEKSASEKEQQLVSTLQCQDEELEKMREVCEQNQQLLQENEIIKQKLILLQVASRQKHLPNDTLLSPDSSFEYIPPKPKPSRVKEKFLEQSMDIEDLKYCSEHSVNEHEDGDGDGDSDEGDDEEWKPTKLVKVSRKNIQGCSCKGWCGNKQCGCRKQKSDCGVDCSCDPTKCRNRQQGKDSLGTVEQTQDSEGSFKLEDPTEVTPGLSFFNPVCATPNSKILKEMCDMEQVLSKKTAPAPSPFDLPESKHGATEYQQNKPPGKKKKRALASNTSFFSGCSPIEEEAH
UniProt Q02241: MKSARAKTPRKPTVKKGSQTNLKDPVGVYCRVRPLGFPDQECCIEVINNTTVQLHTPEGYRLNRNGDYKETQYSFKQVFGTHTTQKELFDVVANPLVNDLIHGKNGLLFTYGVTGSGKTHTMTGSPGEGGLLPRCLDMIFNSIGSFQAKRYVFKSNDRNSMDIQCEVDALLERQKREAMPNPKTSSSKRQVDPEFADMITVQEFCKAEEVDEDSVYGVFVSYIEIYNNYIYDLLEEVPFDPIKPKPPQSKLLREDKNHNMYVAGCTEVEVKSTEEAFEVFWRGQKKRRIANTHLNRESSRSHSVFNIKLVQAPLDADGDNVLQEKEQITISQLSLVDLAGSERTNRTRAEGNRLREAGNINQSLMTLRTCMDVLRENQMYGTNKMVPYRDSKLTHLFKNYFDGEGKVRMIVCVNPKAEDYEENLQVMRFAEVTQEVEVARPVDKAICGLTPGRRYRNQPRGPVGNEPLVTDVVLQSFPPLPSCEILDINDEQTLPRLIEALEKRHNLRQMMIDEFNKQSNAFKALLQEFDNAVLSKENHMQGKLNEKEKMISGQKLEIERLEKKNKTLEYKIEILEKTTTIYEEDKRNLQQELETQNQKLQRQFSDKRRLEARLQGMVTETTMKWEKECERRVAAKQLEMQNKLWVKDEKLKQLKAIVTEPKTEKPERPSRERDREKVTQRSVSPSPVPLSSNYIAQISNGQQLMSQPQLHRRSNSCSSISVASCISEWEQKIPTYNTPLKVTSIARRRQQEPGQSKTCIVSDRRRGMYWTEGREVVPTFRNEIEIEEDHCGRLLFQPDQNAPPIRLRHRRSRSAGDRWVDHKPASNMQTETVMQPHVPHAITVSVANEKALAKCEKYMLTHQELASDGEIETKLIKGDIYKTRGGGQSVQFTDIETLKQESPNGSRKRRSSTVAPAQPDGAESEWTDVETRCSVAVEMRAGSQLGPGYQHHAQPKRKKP
UniProt Q12840: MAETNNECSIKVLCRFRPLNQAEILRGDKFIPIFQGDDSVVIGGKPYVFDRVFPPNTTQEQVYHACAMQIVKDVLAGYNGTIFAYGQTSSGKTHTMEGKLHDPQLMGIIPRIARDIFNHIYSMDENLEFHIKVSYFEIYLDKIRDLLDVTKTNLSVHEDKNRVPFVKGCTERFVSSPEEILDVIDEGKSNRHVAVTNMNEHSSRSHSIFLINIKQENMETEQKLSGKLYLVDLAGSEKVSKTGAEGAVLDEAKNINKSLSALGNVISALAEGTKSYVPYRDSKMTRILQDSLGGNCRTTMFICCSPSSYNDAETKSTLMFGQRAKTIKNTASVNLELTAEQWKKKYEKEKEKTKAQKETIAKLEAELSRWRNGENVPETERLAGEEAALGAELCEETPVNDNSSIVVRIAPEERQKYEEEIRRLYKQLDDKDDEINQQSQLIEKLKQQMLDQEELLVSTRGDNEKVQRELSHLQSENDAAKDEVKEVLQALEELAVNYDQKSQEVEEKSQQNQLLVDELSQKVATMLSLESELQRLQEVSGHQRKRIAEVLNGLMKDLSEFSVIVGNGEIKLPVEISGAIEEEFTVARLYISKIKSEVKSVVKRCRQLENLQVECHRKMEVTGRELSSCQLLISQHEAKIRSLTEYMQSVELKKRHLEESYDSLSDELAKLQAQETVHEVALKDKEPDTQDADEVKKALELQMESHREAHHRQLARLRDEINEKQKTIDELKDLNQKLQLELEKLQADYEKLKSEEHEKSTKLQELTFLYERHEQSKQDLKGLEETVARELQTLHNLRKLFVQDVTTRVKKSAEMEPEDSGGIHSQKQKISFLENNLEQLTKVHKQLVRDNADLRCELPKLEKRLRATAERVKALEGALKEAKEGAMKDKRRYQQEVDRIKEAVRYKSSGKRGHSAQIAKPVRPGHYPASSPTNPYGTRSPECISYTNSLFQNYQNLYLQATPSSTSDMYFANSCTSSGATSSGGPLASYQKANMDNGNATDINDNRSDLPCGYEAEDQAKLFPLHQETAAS
UniProt Q8N4N3: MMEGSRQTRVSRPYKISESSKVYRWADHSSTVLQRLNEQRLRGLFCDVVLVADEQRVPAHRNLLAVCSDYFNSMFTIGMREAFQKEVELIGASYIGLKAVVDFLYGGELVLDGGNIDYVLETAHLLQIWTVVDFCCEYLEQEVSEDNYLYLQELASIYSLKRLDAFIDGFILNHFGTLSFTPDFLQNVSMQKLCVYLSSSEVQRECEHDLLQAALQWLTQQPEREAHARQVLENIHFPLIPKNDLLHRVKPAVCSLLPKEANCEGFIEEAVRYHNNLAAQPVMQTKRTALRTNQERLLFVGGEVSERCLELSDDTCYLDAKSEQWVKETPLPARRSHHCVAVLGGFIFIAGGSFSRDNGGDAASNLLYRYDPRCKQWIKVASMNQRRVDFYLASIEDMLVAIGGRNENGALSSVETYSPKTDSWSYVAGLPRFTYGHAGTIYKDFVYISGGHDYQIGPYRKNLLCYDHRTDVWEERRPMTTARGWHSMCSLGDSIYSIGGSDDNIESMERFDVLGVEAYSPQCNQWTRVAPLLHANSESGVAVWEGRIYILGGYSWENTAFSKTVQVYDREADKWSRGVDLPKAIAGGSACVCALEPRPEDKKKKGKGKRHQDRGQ
UniProt Q9GZZ8: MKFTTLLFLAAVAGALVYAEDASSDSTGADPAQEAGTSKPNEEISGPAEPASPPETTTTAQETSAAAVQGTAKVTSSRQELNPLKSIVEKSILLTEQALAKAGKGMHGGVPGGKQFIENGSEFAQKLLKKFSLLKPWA
UniProt Q9Y664: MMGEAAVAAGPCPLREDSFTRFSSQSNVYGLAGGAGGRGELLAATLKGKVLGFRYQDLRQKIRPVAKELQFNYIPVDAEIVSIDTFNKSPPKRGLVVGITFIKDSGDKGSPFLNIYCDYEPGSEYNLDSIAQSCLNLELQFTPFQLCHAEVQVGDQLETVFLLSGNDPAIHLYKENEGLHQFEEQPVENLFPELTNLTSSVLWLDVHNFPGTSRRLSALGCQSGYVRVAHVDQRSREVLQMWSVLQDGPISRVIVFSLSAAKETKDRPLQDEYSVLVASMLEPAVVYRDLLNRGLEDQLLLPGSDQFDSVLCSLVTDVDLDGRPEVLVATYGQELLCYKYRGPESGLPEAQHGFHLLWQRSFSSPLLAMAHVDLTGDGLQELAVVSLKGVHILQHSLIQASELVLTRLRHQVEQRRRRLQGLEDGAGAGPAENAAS
UniProt Q96A73: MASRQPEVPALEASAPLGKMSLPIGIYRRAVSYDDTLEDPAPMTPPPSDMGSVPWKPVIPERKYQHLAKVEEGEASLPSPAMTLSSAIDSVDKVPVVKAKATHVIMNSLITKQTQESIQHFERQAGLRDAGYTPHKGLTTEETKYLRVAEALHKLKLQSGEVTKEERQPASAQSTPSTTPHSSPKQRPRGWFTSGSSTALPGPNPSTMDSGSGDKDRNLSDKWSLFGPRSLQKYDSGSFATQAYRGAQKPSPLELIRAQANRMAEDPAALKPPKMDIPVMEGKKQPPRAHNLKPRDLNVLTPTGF
UniProt Q06136: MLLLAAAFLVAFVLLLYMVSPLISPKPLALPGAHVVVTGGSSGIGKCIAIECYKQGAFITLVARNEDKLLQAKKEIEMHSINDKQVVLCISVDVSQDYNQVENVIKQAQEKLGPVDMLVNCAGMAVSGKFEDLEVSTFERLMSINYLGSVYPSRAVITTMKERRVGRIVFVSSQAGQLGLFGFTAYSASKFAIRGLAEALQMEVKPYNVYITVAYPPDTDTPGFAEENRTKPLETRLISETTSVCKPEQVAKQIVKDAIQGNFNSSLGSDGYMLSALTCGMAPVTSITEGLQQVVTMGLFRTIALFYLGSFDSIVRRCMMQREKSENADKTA
UniProt Q07866: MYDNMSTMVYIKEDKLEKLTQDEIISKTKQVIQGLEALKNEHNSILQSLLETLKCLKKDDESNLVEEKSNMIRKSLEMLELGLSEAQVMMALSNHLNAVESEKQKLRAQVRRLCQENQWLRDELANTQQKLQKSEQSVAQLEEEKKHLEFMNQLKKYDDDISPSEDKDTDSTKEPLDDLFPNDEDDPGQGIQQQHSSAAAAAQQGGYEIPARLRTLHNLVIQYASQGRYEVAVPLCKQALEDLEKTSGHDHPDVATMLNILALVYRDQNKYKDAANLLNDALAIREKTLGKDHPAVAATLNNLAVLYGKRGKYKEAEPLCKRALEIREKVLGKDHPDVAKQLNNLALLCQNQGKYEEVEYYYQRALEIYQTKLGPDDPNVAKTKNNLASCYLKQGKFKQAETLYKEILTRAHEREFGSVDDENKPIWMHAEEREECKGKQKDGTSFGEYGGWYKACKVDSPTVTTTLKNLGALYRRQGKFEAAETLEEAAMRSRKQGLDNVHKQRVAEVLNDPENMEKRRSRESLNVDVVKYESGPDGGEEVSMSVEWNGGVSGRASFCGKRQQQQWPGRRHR
UniProt O43813, whole entry, looked up: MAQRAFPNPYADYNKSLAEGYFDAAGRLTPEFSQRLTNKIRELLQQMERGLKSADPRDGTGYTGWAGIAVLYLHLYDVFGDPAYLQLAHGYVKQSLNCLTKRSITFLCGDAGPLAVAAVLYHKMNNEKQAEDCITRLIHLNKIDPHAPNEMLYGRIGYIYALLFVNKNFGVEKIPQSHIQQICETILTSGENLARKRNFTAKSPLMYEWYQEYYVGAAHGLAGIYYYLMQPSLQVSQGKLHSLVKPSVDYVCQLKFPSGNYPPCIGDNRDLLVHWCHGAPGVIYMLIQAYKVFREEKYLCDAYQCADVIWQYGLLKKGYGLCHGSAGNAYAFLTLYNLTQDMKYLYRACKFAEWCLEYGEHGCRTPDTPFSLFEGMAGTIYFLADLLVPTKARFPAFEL
UniProt P28838: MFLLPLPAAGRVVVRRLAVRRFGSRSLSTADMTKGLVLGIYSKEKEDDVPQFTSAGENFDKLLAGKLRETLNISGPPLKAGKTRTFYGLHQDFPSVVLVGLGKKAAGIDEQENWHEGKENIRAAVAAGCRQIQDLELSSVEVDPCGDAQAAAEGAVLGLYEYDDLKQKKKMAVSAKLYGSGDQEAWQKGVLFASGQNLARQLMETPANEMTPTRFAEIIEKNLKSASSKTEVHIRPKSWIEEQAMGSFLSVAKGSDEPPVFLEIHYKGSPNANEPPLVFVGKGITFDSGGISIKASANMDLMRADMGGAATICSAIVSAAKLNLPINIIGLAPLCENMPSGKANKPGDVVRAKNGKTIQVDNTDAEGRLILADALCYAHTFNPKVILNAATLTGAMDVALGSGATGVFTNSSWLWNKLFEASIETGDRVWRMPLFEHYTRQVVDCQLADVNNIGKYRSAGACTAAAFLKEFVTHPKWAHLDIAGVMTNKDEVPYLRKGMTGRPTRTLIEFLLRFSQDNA

Compound: CS(=O)(=O)CCNCc1ccc(-c2ccc3ncnc(Nc4ccc(OCc5cccc(F)c5)c(Cl)c4)c3c2)o1 [lapatinib]
Test: log2 fold change, soluble protein after heating vs DMSO (PISA); higher = thermal stabilisation; K562 lysate, 10 uM; active = over 0.2 and 3.5 SD of the protein, either way, in both replicates (recomputed)
How it was run: (§1)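 Thermal stability, expressed as log-two fold change relative to solvent controls, is given from duplicates. Crude K562 extract in PBS pH 7.4 with 1 mM MgCl2, at 1 mg/mL protein, was treated with 10 μM compound for 30 min and heated in aliquots for 3 min across 48°C-58°C. After pooling, adjustment to 0.5% NP-40 at 4°C and centrifugation at 21,000xg for 90 min, supernatant protein was measured by TMTpro 16plex LC-MS/MS with channel sums equalised.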

Row | Target | log2 fold change
1 | KIF4B (UniProt Q2VIQ3) | inactive: 0.03
2 | KIF21A isoform 5 (UniProt Q7Z4S6) | inactive: -0.014
3 | KIF23 isoform 2 (UniProt Q02241) | inactive: -0.017
4 | KIF5A (UniProt Q12840) | inactive: -0.022
5 | KIF11 (UniProt P52732) | inactive: 0
6 | KNOP1 (UniProt Q1ED39) | inactive: -0.046
7 | KIAA0100 (UniProt Q14667) | inactive: -0.011
8 | KLHL36 (UniProt Q8N4N3) | inactive: -0.045
9 | KPNA2 (UniProt P52292) | inactive: -0.016
10 | LARP1 (UniProt Q6PKG0) | inactive: -0.001
11 | KYAT1 (UniProt Q16773) | inactive: -0.024
12 | KLHL20 (UniProt Q9Y2M5) | inactive: 0.005
13 | LAMP2 (UniProt P13473) | inactive: 0.024
14 | KIF4A (UniProt O95239) | inactive: 0.007
15 | LACRT (UniProt Q9GZZ8) | inactive: 0.054
16 | KNSTRN (UniProt Q9Y448) | inactive: 0.013
17 | KLC4 isoform 3 (UniProt Q9NSK0) | inactive: -0.002
18 | KHK isoform 2 (UniProt P50053) | inactive: -0.066
19 | KLF16 (UniProt Q9BXK1) | inactive: 0.003
20 | KPTN (UniProt Q9Y664) | inactive: -0.009

Row | Target | log2 fold change
21 | KIAA0319L (UniProt Q8IZA0) | inactive: 0.002
22 | KIF13A isoform 4 (UniProt Q9H1H9) | inactive: -0.047
23 | KIAA1324L (UniProt A8MWY0) | inactive: 0.001
24 | KMT2D isoform 3 (UniProt O14686) | inactive: -0.014
25 | KNTC1 (UniProt P50748) | inactive: -0.039
26 | KIN (UniProt O60870) | inactive: 0
27 | KIAA1522 isoform 2 (UniProt Q9P206) | inactive: 0.008
28 | KIAA1191 (UniProt Q96A73) | inactive: -0.001
29 | KPNA6 (UniProt O60684) | inactive: 0.01
30 | KIF5B (UniProt P33176) | inactive: -0.019
31 | KHDC4 (UniProt Q7Z7F0) | inactive: -0.025
32 | KDSR (UniProt Q06136) | inactive: -0.015
33 | KLC1 isoform 6 (UniProt Q07866) | inactive: -0.011
34 | LAMTOR4 (UniProt Q0VGL1) | inactive: -0.015
35 | LANCL1 (UniProt O43813) | inactive: -0.006
36 | LAMTOR3 (UniProt Q9UHA4) | inactive: -0.017
37 | LAP3 (UniProt P28838) | inactive: -0.021
38 | KIF15 (UniProt Q9NS87) | inactive: -0.02
39 | KEAP1 (UniProt Q14145) | inactive: -0.005
40 | KYAT3 (UniProt Q6YP21) | inactive: -0.011

Compound: CS(=O)(=O)N1CCN(Cc2cc3nc(-c4cccc5[nH]ncc45)nc(N4CCOCC4)c3s2)CC1 [pictilisib]
Test: as above
How it was run: as §1

Row | Target | log2 fold change
41 | KIF4B (UniProt Q2VIQ3) | inactive: -0.001
42 | KIF21A isoform 5 (UniProt Q7Z4S6) | inactive: -0.018
43 | KIF23 isoform 2 (UniProt Q02241) | inactive: 0.052
44 | KIF5A (UniProt Q12840) | inactive: -0.019
45 | KIF11 (UniProt P52732) | inactive: 0.021
46 | KNOP1 (UniProt Q1ED39) | inactive: 0.03
47 | KIAA0100 (UniProt Q14667) | inactive: -0.165
48 | KLHL36 (UniProt Q8N4N3) | inactive: -0.006
49 | KPNA2 (UniProt P52292) | inactive: 0.024
50 | LARP1 (UniProt Q6PKG0) | inactive: -0.005
51 | KYAT1 (UniProt Q16773) | inactive: -0.002
52 | KLHL20 (UniProt Q9Y2M5) | inactive: -0.009
53 | LAMP2 (UniProt P13473) | inactive: -0.067
54 | KIF4A (UniProt O95239) | inactive: -0.002
55 | KNSTRN (UniProt Q9Y448) | inactive: 0.05
56 | KLC4 isoform 3 (UniProt Q9NSK0) | inactive: -0.053
57 | KHK isoform 2 (UniProt P50053) | inactive: -0.015
58 | KLF16 (UniProt Q9BXK1) | inactive: -0.03
59 | KPTN (UniProt Q9Y664) | inactive: 0.026
60 | KIAA0319L (UniProt Q8IZA0) | inactive: -0.016

Row | Target | log2 fold change
61 | KIF13A isoform 4 (UniProt Q9H1H9) | inactive: -0.008
62 | KIAA1324L (UniProt A8MWY0) | inactive: -0.039
63 | KMT2D isoform 3 (UniProt O14686) | inactive: -0.012
64 | KNTC1 (UniProt P50748) | inactive: -0.029
65 | KIN (UniProt O60870) | inactive: -0.004
66 | KIAA1522 isoform 2 (UniProt Q9P206) | inactive: -0.056
67 | KIAA1191 (UniProt Q96A73) | inactive: -0.03
68 | KPNA6 (UniProt O60684) | inactive: -0.006
69 | KIF5B (UniProt P33176) | inactive: 0.006
70 | KHDC4 (UniProt Q7Z7F0) | inactive: -0.04
71 | KDSR (UniProt Q06136) | inactive: -0.076
72 | KLC1 isoform 6 (UniProt Q07866) | inactive: -0.001
73 | LAMTOR4 (UniProt Q0VGL1) | inactive: 0
74 | LANCL1 (UniProt O43813) | inactive: -0.033
75 | LAMTOR3 (UniProt Q9UHA4) | inactive: 0.061
76 | LAP3 (UniProt P28838) | inactive: 0.003
77 | KIF15 (UniProt Q9NS87) | inactive: 0.006
78 | KEAP1 (UniProt Q14145) | inactive: -0.023
79 | KYAT3 (UniProt Q6YP21) | inactive: -0.006
